Test [1] addresses T1, Flag-TBK1 (UniProt Q9UHD2).
T1 sequence: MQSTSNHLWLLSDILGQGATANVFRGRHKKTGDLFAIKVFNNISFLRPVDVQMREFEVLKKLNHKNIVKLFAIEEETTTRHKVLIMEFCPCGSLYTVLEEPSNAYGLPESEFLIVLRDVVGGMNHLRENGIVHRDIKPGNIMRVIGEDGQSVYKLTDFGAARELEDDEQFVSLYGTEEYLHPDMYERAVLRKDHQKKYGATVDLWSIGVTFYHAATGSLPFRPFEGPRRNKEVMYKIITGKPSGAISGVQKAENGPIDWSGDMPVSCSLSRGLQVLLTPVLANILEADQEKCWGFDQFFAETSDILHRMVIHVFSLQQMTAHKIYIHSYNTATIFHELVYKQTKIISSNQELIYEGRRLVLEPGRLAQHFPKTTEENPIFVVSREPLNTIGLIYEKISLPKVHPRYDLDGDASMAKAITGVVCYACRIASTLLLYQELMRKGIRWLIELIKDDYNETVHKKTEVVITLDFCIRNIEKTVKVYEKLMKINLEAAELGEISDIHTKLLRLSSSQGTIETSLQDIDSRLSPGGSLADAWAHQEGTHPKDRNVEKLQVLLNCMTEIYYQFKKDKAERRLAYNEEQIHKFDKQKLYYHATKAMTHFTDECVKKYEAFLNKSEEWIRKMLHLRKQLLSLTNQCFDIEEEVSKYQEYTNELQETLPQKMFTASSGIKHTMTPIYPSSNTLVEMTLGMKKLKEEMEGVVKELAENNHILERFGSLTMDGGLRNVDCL
Description: co-IP; HEK293 cells transfected with Flag-TLR3, Flag-TBK1 or Flag-TRAF3 and HA-TRIF together with a control or Myc-USP19 (or USP19(C607S)) plasmid, 20 h; IP with anti-Flag or control IgG; blots with anti-HA or anti-Flag.

Sequences of proteins named here, by UniProt entry; tags and fusion partners are left off. Residues count along the entry.
UniProt O15455, residues 24-904: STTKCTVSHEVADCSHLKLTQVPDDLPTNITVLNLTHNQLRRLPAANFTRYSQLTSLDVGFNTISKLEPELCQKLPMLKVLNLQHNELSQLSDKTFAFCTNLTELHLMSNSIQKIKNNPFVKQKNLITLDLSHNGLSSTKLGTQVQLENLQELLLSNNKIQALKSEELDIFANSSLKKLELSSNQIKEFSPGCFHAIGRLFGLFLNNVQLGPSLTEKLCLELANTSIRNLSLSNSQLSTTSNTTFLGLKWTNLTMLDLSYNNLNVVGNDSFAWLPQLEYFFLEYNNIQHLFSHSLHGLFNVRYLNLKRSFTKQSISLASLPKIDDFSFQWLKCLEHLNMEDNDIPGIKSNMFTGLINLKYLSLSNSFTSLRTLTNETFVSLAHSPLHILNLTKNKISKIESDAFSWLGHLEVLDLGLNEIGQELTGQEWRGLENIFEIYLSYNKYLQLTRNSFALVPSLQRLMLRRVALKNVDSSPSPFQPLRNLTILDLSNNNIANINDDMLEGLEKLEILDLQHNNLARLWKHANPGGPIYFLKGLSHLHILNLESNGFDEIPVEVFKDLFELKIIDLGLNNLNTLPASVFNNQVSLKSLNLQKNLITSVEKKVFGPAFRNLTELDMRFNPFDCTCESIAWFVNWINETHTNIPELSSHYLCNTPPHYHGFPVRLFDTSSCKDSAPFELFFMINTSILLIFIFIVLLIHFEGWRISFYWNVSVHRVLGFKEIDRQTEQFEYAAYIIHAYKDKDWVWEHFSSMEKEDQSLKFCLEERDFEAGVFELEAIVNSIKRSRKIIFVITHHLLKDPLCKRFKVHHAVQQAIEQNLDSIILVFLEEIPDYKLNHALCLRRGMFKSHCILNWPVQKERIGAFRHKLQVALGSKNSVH
UniProt Q8IUC6: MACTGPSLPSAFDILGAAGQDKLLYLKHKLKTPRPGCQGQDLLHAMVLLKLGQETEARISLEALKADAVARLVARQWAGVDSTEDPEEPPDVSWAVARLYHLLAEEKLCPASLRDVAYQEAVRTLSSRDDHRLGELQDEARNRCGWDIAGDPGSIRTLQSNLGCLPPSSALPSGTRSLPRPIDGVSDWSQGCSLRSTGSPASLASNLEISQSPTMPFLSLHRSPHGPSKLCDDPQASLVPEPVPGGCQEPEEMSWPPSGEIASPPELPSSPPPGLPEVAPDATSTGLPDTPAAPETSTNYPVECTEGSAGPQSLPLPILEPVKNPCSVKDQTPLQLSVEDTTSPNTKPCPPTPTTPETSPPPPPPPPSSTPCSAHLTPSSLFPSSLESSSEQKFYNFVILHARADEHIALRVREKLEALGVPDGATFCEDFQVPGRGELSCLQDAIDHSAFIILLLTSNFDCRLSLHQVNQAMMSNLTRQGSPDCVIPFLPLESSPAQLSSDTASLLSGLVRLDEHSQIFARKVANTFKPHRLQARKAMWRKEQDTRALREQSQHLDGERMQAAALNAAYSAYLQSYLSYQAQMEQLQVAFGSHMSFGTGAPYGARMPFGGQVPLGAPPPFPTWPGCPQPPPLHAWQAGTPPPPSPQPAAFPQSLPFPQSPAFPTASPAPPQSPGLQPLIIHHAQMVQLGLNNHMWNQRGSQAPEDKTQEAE
UniProt O00206, residues 24-839: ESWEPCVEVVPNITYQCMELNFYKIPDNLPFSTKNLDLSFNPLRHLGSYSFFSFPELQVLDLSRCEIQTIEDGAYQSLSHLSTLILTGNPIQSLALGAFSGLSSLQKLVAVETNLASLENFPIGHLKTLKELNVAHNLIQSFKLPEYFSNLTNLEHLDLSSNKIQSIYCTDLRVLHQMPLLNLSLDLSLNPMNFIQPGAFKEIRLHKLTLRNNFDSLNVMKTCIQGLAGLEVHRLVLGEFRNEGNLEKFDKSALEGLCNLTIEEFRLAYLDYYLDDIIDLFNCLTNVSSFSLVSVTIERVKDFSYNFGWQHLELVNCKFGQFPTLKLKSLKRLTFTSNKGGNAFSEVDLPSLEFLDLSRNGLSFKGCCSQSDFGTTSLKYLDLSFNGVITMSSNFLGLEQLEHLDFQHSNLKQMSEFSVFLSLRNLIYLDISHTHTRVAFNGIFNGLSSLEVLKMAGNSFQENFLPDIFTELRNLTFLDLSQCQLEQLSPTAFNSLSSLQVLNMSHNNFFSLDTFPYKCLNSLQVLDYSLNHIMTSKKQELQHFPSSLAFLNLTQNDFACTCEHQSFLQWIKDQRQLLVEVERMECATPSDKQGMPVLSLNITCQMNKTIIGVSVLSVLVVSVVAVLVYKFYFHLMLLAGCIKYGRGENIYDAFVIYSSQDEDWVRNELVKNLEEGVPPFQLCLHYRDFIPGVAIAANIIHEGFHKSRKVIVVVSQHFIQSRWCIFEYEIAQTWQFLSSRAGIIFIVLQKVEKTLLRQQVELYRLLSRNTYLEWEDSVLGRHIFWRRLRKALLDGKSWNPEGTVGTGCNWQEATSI
UniProt Q86XR7: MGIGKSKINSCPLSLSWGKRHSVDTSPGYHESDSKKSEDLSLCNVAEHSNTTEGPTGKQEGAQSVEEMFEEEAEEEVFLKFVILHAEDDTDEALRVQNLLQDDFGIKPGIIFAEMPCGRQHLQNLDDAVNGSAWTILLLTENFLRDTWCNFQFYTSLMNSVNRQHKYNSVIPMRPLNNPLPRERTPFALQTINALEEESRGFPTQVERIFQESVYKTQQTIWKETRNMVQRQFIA

In test [2] the target is Flag-TLR3 (UniProt O15455). Described as above.
Test [3] has as its target Endogenous TRIF (human (endogenous in 293-TLR3 and 293-TLR4 cells)) (UniProt Q8IUC6). Description: co-IP; endogenous: 293-TLR3 or 293-TLR4 cells (control or USP19-deficient) untreated or treated with poly(I:C) (100 μg/ml) or LPS (100 ng/ml) for the indicated times; lysates immunoprecipitated with anti-TRIF or control IgG; immunoblots.
For test [4], the target named is TLR4, overexpressed (tag not stated for this experiment) (UniProt O00206). The test can be described thus: co-IP; HEK293 cells transfected with the indicated plasmids (TRIF, TLR4, TRAM, with or without USP19 or USP19(C607S)), 20 h; co-IP and immunoblots with the indicated antibodies. For orientation: A western blot detects proteins with antibodies after separation by electrophoresis.

Test [5] deals with Endogenous TRIF (human (endogenous in 293-TLR3 and 293-TLR4 cells)) (UniProt Q8IUC6). Description: co-IP; control or USP19-deficient 293-TLR4 cells untreated or treated with LPS (100 ng/ml) for the indicated times; co-IP and immunoblots with the indicated antibodies (precipitating antibody not told).
Test [6] addresses TRAM (TRIF-related adapter molecule), overexpressed (tag not stated for this experiment) (UniProt Q86XR7). The test can be described thus: co-IP; HEK293 cells transfected with the indicated plasmids (TRIF, TLR4, TRAM, with or without USP19 or USP19(C607S)), 20 h; co-IP and immunoblots with the indicated antibodies.
For test [7], the target named is Endogenous TRIF (human (endogenous in 293-TLR3 and 293-TLR4 cells)) (UniProt Q8IUC6). The test can be described thus: co-IP; endogenous: 293-TLR3 or 293-TLR4 cells (control or USP19-deficient) untreated or treated with poly(I:C) (100 μg/ml) or LPS (100 ng/ml) for the indicated times; lysates immunoprecipitated with anti-TRIF or control IgG; immunoblots. The source holds these as a separate data set.

Our source for the binding values is publication PMC6739404.

Results are given in words; binding and its absence hold for the method and conditions named. Binding seen in cells or lysates may run through a third protein. Some results given as binding are weak or reduced against the parent protein; the word gives no strength. For some assays here: Where a sequence is shown, tags or fusion partners need not be part of it.

As to HA-TRIF (from UniProt Q8IUC6 1-712), the binding entry in test [1] and in test [2] was “binds” each time.

As to “TLR3 of 293-TLR3 cells (from UniProt O15455 24-904) (receptor)”, the binding result in test [3] is “binds”.

On to “TRAM (TRIF-related adapter molecule), overexpressed (tag not stated for this experiment) (from UniProt Q86XR7 1-235)”, for which the binding result in test [4] was “binds”.

On to “TRAM of 293-TLR4 cells (from UniProt Q86XR7 1-235)”, for which the binding entry in test [5] is reported as “binds”.

Turning to “TRIF, overexpressed (tag not stated for this experiment) (from UniProt Q8IUC6 1-712)”, the binding entry in test [6] is reported as “binds”.

B1: Endogenous USP19 (enzyme, UniProt O94966 1-1318)
chain: MSGGASATGPRRGPPGLEDTTSKKKQKDRANQESKDGDPRKETGSRYVAQAGLEPLASGDPSASASHAAGITGSRHRTRLFFPSSSGSASTPQEEQTKEGACEDPHDLLATPTPELLLDWRQSAEEVIVKLRVGVGPLQLEDVDAAFTDTDCVVRFAGGQQWGGVFYAEIKSSCAKVQTRKGSLLHLTLPKKVPMLTWPSLLVEADEQLCIPPLNSQTCLLGSEENLAPLAGEKAVPPGNDPVSPAMVRSRNPGKDDCAKEEMAVAADAATLVDEPESMVNLAFVKNDSYEKGPDSVVVHVYVKEICRDTSRVLFREQDFTLIFQTRDGNFLRLHPGCGPHTTFRWQVKLRNLIEPEQCTFCFTASRIDICLRKRQSQRWGGLEAPAARVGGAKVAVPTGPTPLDSTPPGGAPHPLTGQEEARAVEKDKSKARSEDTGLDSVATRTPMEHVTPKPETHLASPKPTCMVPPMPHSPVSGDSVEEEEEEEKKVCLPGFTGLVNLGNTCFMNSVIQSLSNTRELRDFFHDRSFEAEINYNNPLGTGGRLAIGFAVLLRALWKGTHHAFQPSKLKAIVASKASQFTGYAQHDAQEFMAFLLDGLHEDLNRIQNKPYTETVDSDGRPDEVVAEEAWQRHKMRNDSFIVDLFQGQYKSKLVCPVCAKVSITFDPFLYLPVPLPQKQKVLPVFYFAREPHSKPIKFLVSVSKENSTASEVLDSLSQSVHVKPENLRLAEVIKNRFHRVFLPSHSLDTVSPSDTLLCFELLSSELAKERVVVLEVQQRPQVPSVPISKCAACQRKQQSEDEKLKRCTRCYRVGYCNQLCQKTHWPDHKGLCRPENIGYPFLVSVPASRLTYARLAQLLEGYARYSVSVFQPPFQPGRMALESQSPGCTTLLSTGSLEAGDSERDPIQPPELQLVTPMAEGDTGLPRVWAAPDRGPVPSTSGISSEMLASGPIEVGSLPAGERVSRPEAAVPGYQHPSEAMNAHTPQFFIYKIDSSNREQRLEDKGDTPLELGDDCSLALVWRNNERLQEFVLVASKELECAEDPGSAGEAARAGHFTLDQCLNLFTRPEVLAPEEAWYCPQCKQHREASKQLLLWRLPNVLIVQLKRFSFRSFIWRDKINDLVEFPVRNLDLSKFCIGQKEEQLPSYDLYAVINHYGGMIGGHYTACARLPNDRSSQRSDVGWRLFDDSTVTTVDESQVVTRYAYVLFYRRRNSPVERPPRAGHSEHHPDLGPAAEAAASQASRIWQELEAEEEPVPEGSGPLGPWGPQDWVGPLPRGPTTPDEGCLRYFVLGTVAALVALVLNVFYPLVSQSRWR
On to B1, for which, in test [7], the binding entry is reported as “binds”.

B2: Endogenous KCTD10 (protein, UniProt Q9H3F6 1-313)
chain: MEEMSGESVVSSAVPAAATRTTSFKGTSPSSKYVKLNVGGALYYTTMQTLTKQDTMLKAMFSGRMEVLTDSEGWILIDRCGKHFGTILNYLRDGAVPLPESRREIEELLAEAKYYLVQGLVEECQAALQNKDTYEPFCKVPVITSSKEEQKLIATSNKPAVKLLYNRSNNKYSYTSNSDDNMLKNIELFDKLSLRFNGRVLFIKDVIGDEICCWSFYGQGRKIAEVCCTSIVYATEKKQTKVEFPEARIYEETLNILLYEAQDGRGPDNALLEATGGAAGRSHHLDEDEERERIERVRRIHIKRPDDRAHLHQ
As for B2, in test [7], the binding result is recorded as “binds”.
